The results in this text go back to publication doi:10.1101/2021.08.04.455086.

Chains of the proteins cited; added tags and fusions are not shown.
UniProt Q9R1A8: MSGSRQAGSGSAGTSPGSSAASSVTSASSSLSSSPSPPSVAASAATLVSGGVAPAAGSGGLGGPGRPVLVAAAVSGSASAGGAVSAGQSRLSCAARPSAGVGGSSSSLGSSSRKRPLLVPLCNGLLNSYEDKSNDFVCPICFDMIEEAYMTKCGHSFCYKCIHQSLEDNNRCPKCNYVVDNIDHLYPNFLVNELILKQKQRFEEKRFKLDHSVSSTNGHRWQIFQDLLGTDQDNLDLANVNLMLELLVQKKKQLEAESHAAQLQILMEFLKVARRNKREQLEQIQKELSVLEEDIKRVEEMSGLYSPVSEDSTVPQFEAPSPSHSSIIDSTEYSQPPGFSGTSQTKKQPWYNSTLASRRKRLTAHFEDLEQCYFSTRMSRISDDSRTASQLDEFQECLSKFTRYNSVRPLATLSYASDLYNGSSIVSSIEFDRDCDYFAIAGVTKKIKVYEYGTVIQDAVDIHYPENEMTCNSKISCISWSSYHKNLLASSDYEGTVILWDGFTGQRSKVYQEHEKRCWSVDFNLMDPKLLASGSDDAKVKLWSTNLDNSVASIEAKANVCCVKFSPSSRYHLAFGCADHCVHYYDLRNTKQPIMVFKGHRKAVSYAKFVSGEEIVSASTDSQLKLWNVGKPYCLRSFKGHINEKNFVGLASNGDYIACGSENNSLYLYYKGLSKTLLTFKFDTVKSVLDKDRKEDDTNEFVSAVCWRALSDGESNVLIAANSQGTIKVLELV

Like-named read-outs stand apart in the source and are kept apart here. Results are given in words; binding and its absence hold for the method and conditions named. Binding seen in cells or lysates may run through a third protein. Some binding calls cover weakened binding; strength is not graded here.

Assay [1] deals with T1, IRF9 (Interferon Regulatory Factor 9) (mouse (endogenous in BALB/c peritoneal macrophages and lung)) (UniProt Q61179).
T1 sequence: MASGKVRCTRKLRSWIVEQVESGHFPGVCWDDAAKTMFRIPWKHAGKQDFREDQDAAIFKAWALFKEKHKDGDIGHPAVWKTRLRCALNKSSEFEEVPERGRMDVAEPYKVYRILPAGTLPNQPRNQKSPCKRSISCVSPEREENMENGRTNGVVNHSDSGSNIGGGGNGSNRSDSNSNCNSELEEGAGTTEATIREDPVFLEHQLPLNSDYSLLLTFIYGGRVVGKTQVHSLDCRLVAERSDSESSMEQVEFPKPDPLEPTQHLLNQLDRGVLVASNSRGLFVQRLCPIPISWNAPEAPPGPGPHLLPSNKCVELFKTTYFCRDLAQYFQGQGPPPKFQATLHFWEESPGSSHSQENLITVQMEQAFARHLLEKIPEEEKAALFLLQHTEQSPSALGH
Kind of assay: co-IP.

The target of assay [2] is T1, IRF9 (Interferon Regulatory Factor 9) (mouse (endogenous in BALB/c peritoneal macrophages and lung)). As to the kind of experiment: co-IP. This is another data set of the same source.

As for “COP1 (Constitutive photomorphogenesis protein 1) (from UniProt Q9R1A8 1-733) (enzyme)”, the binding result in assay [1] and in assay [2] was “binds” in each case.
